Reference: patent US20190262469A1 (priority 2015, published 2019)
Results are given in words; binding and its absence hold for the method and conditions named. Some results given as binding are weak or reduced against the parent protein; the word gives no strength.

Protein sequences, listed by entry. Tags and fused reporters are not part of them. Residues count along the entry.
UniProt P52799, residues 28-333: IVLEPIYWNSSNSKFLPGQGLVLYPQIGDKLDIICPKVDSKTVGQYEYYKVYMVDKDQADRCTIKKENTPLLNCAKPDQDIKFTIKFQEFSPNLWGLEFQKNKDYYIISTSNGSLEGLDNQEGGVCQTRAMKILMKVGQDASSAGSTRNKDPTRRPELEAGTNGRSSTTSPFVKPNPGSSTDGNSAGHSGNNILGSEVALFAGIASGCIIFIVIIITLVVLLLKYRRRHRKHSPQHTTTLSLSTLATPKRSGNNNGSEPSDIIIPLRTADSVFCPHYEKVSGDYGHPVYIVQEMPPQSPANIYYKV

These binders were tested against human ephrin B2 (EB2) expressed on cells (CHO-K1 transfected to express ephrin B2) (human) (UniProt P52799) (assay: immunofluorescence of peptide-displaying M13 phage bound to CHO-K1/ephrin B2 cells, detected with labelled anti-M13 pVIII antibody).

Binder	binding
TGAILHP [TGAILHP (SEQ ID NO:52), ephrin B2-targeting 7-mer peptide displayed on M13 phage]	binds
QGAINHP [QGAINHP (SEQ ID NO:53), 7-mer peptide displayed on M13 phage]	binds
QHIPKPP [QHIPKPP (SEQ ID NO:54), 7-mer peptide displayed on M13 phage]	binds
QHIRKPP [QHIRKPP (SEQ ID NO:55), 7-mer peptide displayed on M13 phage]	binds
QHILNPP [QHILNPP (SEQ ID NO:57), 7-mer peptide displayed on M13 phage]	binds
SILPYPY [SEQ ID NO 58]	binds
ASYSGTA [SEQ ID NO 59]	binds
